The test has as its target streptavidin (UniProt P22629). Nature of the test: ELISA; 830 pmol streptavidin immobilised per well, blocked with 1% BSA; about 2.0 × 10^10 PFU of T7 phage in tris-buffered saline with 0.5% Triton X-100, 1 h at 25 °C; detected with T7 tail fiber antibody; both purified.

No constants are given. Whether binding was seen depends on the method and setting. Some binding calls cover weakened binding; strength is not graded here.

Turning to SGGGAMWCQYHPQNCYKM (Sal-conjugated Cys at the two designated cysteines) [Sal-conjugated T7 phage-displayed peptide, clone 7 (-A-M-W-C-Q-Y-H-P-Q-N-C-Y-K-M)], the binding entry is recorded as “binds”.

With SGGGRIVCVQHPQFCQY (Sal-conjugated Cys at the two designated cysteines) [Sal-conjugated T7 phage-displayed peptide, clone 2 (-R-I-V-C-V-Q-H-P-Q-F-C-Q-Y)], the binding result is “binds”.

For the origin of these results see publication PMC6271298, “Pharmacophore Generation from a Drug-like Core Molecule Surrounded by a Library Peptide via the 10BASEd-T on Bacteriophage T7” (Molecules, 2014).
